PubChem BioAssay AID504791 | Drosophila RNAi Screening Center, 2011
The deposit covers about 23,000 reagents; this is an unselected part of those with a known target gene and a result. Of all reagents, 199 (0.86%) are marked active. 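Plate-scaled ratios behind the calls are not deposited; printed light signals are raw; many rows marked increased or decreased are still called inactive.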 Unmarked entries are inactive. A plus sign joins genes that one reagent is predicted to hit. Not given: the direction of the score.

Assay: 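Genes of the fly required for silencing by miRNA, siRNA or endo-siRNA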 (primary screen)
System: Drosophila S2-derived reporter cells
Reagents: long dsRNA against Drosophila genes, about 150-250 ng dsRNA per well (siRNA assay); about 80-120 ng (miRNA assay)
Timing: about 5 days (siRNA assay); about 4 days (miRNA assay)
Challenge: copper sulfate induction of reporters: 25 µM (siRNA assay); 200 mM stated (miRNA assay), 1-2 days before reading
Read-out: 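Per-well ratio of Renilla over firefly light, expressed relative to that plate's average ratio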
Units: stable assay Renilla, run 1 in luminescence; stable assay firefly, run 1 in luminescence
Active means: 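a well was a first-pass pick when its plate-scaled ratio rose above 1.5 (siRNA assay) or 1.6 (miRNA assay), or dropped below 0.6; a gene counted only if two separate dsRNAs agreed on retest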

slmb [DRSC17056] — stable assay Renilla, run 1 = 10084; stable assay firefly, run 1 = 5.11e5
ich [DRSC12715] — stable assay Renilla, run 1 = 5108; stable assay firefly, run 1 = 3.12e5
ich [DRSC14448] — stable assay Renilla, run 1 = 6632; stable assay firefly, run 1 = 4.14e5
Atf-2 [DRSC04130] — stable assay Renilla, run 1 = 8889; stable assay firefly, run 1 = 2.14e6
Atf-2 [DRSC04413] — stable assay Renilla, run 1 = 5351; stable assay firefly, run 1 = 5.81e5
CG9967 [DRSC00742] — stable assay Renilla, run 1 = 10736; stable assay firefly, run 1 = 8.27e5
puc [DRSC17034] — stable assay Renilla, run 1 = 6127; stable assay firefly, run 1 = 3.83e5
CG11694 [DRSC14354] — stable assay Renilla, run 1 = 6734; stable assay firefly, run 1 = 3.93e5
alpha-Man-Ia [DRSC17642] — stable assay Renilla, run 1 = 4795; stable assay firefly, run 1 = 3.24e5
alpha-Man-Ia [DRSC18162] — stable assay Renilla, run 1 = 5827; stable assay firefly, run 1 = 4.14e5
alpha-Man-Ia [DRSC18163] — stable assay Renilla, run 1 = 6035; stable assay firefly, run 1 = 5.25e5
alpha-Man-Ia [DRSC18735] — stable assay Renilla, run 1 = 6152; stable assay firefly, run 1 = 4.54e5
alpha-Man-Ia [DRSC23100] — stable assay Renilla, run 1 = 4119; stable assay firefly, run 1 = 3.88e5
Liprin-gamma [DRSC04093] — stable assay Renilla, run 1 = 2948; stable assay firefly, run 1 = 3.05e5
CG31272 [DRSC16058] — stable assay Renilla, run 1 = 6612; stable assay firefly, run 1 = 3.67e5
Nep7 [DRSC15830] — stable assay Renilla, run 1 = 6478; stable assay firefly, run 1 = 4.16e5
CG11566 (retired record) + stg1 [DRSC20473] — stable assay Renilla, run 1 = 3823; stable assay firefly, run 1 = 2.07e5
CG11566 (retired record) + stg1 [DRSC20481] — stable assay Renilla, run 1 = 4863; stable assay firefly, run 1 = 4.07e5
CG11566 (retired record) + stg1 [DRSC20482] — stable assay Renilla, run 1 = 6207; stable assay firefly, run 1 = 3.88e5
CG11566 (retired record) + stg1 [DRSC20483] — stable assay Renilla, run 1 = 4535; stable assay firefly, run 1 = 3.14e5
CR12798 [DRSC21078] — stable assay Renilla, run 1 = 6086; stable assay firefly, run 1 = 5.55e5
Mf [DRSC16120] — stable assay Renilla, run 1 = 8074; stable assay firefly, run 1 = 3.88e5
vap [DRSC20275] — stable assay Renilla, run 1 = 6992; stable assay firefly, run 1 = 4.16e5
Cpsf100 [DRSC14146] — stable assay Renilla, run 1 = 7334; stable assay firefly, run 1 = 6.26e5
Cpsf100 [DRSC28396] — miRNA reporter change = reporter ratio lowered past the hit cutoff
Neos [DRSC11235] — stable assay Renilla, run 1 = 9658; stable assay firefly, run 1 = 6.63e5
chn [DRSC06086] — stable assay Renilla, run 1 = 6867; stable assay firefly, run 1 = 5.07e5
Axs [DRSC19333] — stable assay Renilla, run 1 = 5139; stable assay firefly, run 1 = 4.91e5

Taken from above.
alpha-Man-Ia [DRSC18163], stable assay firefly, run 1 → 5.25e5
Entry for slmb [DRSC17056] under “stable assay firefly, run 1”: 5.11e5
